Values quoted from earlier work in article PMC11594716, “Rhodanine–Piperazine Hybrids as Potential VEGFR, EGFR, and HER2 Targeting Anti-Breast Cancer Agents” (International Journal of Molecular Sciences, 2024).

Columns and labels:
MDA-MB-231 cell line = details: read-out: Values of IC50, MDA-MB-231; reference drug; ref [36]; cited from earlier work
T47D cell line = details: read-out: Values of IC50, T47D; reference drug; ref [38]; cited from earlier work

Cc1ccc(NC(=O)c2ccc(CN3CCN(C)CC3)cc2)cc1Nc1nccc(-c2cccnc2)n1 [Imatinib]
IC50 (MDA-MB-231 cell line): 5.5 µM | IC50 (T47D cell line): 5.14 µM
